# These are yes or no findings as the source states them, for the method shown. Binding seen in cells or lysates may run through a third protein. Some binding calls cover weakened binding; strength is not graded here. For some assays here: Sequences can lack the tags named with a protein.
# Amino acid sequences for entries named in this document (tags omitted).
# UniProt O95863: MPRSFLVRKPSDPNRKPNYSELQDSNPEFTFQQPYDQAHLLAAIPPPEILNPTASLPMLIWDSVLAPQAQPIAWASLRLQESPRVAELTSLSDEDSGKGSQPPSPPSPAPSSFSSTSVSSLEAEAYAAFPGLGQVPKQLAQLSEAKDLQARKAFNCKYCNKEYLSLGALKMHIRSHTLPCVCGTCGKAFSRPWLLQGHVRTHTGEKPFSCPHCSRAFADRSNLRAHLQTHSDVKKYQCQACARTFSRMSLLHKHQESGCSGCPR
# Assays:
# FLAG-SNAIL = FLAG-SNAIL (UniProt O95863); test: co-IP; FLAG-SNAIL precipitated with anti-flag M2 affinity gel from NP40 lysates of MDA-MB-231 cells coexpressing FLAG-SNAIL and HA-MARCH2; 1 hour at room temperature; blotted with anti-HA; also with vehicle or P21d for 4 or 18 hours in the presence of MG132
# [1] = target: endogenous SNAIL (human (endogenous in MDA-MB-231)) (UniProt O95863); test: proximity ligation; Duolink PLA on fixed, permeabilised MDA-MB-231 cells with antibodies to Snail and MARCH2; DMSO or P21d for 8 hours, MG132 for the last 4 hours; PLA signals per cell counted with ImageJ
binding (FLAG-SNAIL),binding [1],Binder
binds,,"HA-tagged MARCH2 (membrane-associated RING-CH2), wild type (protein, UniProt Q9P0N8 1-246) MTTGDCCHLPGSLCDCSGSPAFSKVVEATGLGPPQYVAQVTSRDGRLLSTVIRALDTPSDGPFCRICHEGANGECLLSPCGCTGTLGAVHKSCLEKWLSSSNTSYCELCHTEFAVEKRPRPLTEWLKDPGPRTEKRTLCCDMVCFLFITPLAAISGWLCLRGAQDHLRLHSQLEAVGLIALTIALFTIYVLWTLVSFRYHCQLYSEWRKTNQKVRLKIREADSPEGPQHSPLAAGLLKKVAEETPV"
,binds,"endogenous MARCH2 (protein, UniProt Q9P0N8 1-246) MTTGDCCHLPGSLCDCSGSPAFSKVVEATGLGPPQYVAQVTSRDGRLLSTVIRALDTPSDGPFCRICHEGANGECLLSPCGCTGTLGAVHKSCLEKWLSSSNTSYCELCHTEFAVEKRPRPLTEWLKDPGPRTEKRTLCCDMVCFLFITPLAAISGWLCLRGAQDHLRLHSQLEAVGLIALTIALFTIYVLWTLVSFRYHCQLYSEWRKTNQKVRLKIREADSPEGPQHSPLAAGLLKKVAEETPV"

# — publication PMC10977041
